Experimental findings from paper PMC4320536 are described below.

Results are given in words; binding and its absence hold for the method and conditions named. Binding seen in cells or lysates may run through a third protein. Here binding means that the protein was enriched with, or labelled near, the bait; the list need not be complete. Where a sequence is shown, tags or fusion partners need not be part of it.

The test concerns the target Leishmania EIF3E (native eIF3e orthologue of L. infantum) (L. infantum (endogenous in promastigotes)). The test is described as follows: affinity purification with mass spectrometry; IP from L. infantum promastigote cytoplasmic extract with affinity purified anti-EIF3E antibodies on protein A sepharose; pre-immune serum as control; eluted proteins analysed by ESI MS/MS, three independent experiments.

B1: G6PD: Glucose-6-Phosphate 1-Dehydrogenase (Leishmania) (enzyme, UniProt A2CIJ8 1-562)
chain: MSEEQSHADQDAYVADVDGILDVLRAQVLERKPDDIFQFISKSALSLQKDRGAESCDRINCKVKDEQKSRALTIIVFGASGDLAKKKTFPALFDLYCGGLLPPEVNIIGYARTKVDDVEKWKHETLMKYFSNLSERGCHAEDFLKHISYFCGAYDSVDDFKRLDAVIREKENAFKGPEKGGNRLFYLALPPSVFASVCESIHKGAMPQEVGGWVRVIIEKPFGRDTKSSAELSQALEPFFDESQLYRIDHYLGKEMVQNIITTRFANRIFSAVWNASNIACVQITFKETIGTEGRGGYFDSIGIIRDVMQNHLTQILALLAMEKPRSLDAECIRDEKVSVLKCIEPITKENCVLGQYTASADGSIPGYLEDVTVPEGSTCPTFAVMRLNINNDRWAGVPFILKAGKAVEQKYVAIRIQFRDEVHPYGEATQRNELVIRAQPSEAMYVKITTKVPGLSGDLRQTHQTELDLTYHTRYDVRLPDAYESLINDALLGNSTNFVRKDELDVAWRIFTPLLHQIDSGEIKPIPYQAGTRGPKEADEFIANNGFKHQKGYHWLPSNKL
With B1, the binding result is “binds”.
